Reference: article PMC5932879
These are yes or no findings as the source states them, for the method shown. Binding calls can cover weak binding; strength is not graded here. Sequences can lack the tags named with a protein.

Amino acid sequences for entries named in this document (tags omitted). A change or cut given only in a name is not applied to a line headed by its entry.
UniProt Q9UNA0: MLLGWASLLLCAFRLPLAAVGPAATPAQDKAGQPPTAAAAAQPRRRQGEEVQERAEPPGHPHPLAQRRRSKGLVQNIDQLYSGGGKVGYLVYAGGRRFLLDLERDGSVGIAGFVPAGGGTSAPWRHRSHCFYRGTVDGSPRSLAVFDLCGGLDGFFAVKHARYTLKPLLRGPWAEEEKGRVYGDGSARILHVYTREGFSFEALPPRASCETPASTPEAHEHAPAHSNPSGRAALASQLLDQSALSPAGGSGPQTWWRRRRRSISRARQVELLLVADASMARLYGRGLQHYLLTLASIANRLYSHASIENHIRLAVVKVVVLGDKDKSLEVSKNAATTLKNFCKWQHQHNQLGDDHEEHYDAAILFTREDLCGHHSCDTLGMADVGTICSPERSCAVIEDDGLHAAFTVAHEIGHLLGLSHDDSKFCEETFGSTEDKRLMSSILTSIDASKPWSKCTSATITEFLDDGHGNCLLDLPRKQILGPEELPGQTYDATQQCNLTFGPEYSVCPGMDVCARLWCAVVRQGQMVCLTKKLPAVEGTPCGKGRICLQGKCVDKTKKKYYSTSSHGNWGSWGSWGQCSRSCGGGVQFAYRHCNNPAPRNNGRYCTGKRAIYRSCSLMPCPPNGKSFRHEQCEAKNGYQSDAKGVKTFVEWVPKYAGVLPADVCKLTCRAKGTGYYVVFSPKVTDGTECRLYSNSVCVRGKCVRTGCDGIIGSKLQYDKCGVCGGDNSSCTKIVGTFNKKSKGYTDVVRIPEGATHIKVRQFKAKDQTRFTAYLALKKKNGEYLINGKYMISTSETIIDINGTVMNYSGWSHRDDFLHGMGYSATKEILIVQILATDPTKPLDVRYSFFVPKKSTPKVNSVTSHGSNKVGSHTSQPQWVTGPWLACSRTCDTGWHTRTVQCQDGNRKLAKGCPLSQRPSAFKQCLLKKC

Key:
[1] = target: recombinant human ADAMTS5 (human) (UniProt Q9UNA0); assay: far-Western, overlay or dot blot; slot blot binding assay: ADAMTS5, collagen I and collagen II immobilised on PVDF membranes by vacuum blotting, blocked with BSA, incubated with recombinant Ucma (100 ng/μl) or BSA; bound Ucma detected with anti-FLAG or anti-Ucma (UCMA-1) antibody, HRP secondary antibody and ECL; both purified
[2] = target: recombinant human ADAMTS5 (human) (UniProt Q9UNA0); assay: ELISA; solid phase binding assay: ELISA plates coated with BSA (blanks), collagen I, collagen II or ADAMTS5 (2–250 ng/well), blocked with BSA, incubated with Ucma (100 ng/ml); bound Ucma detected with anti-FLAG antibody, anti-mouse-IgG-HRP, o-phenylenediamine, 492 nm; both purified

B1: Upper zone of growth plate and cartilage matrix associated protein (Ucma), recombinant His-FLAG-tagged (protein, UniProt Q14BU0 28-138)
chain: SVGSRQAAAEGVQEGVKQKIFMQESDASNFLKRRGKRSPKSRDEVNAENRQRLRDDELRREYYEEQRNEFENFVEEQRDEQEERTREAVEQWRQWHYDGLYPSYLYNRQNI
B1 was tested, and the binding [1] was “binds” and the binding [2] was “binds”.
